Reference: publication doi:10.1101/2021.10.10.463828 (bioRxiv, 2021)
No constants are given. Whether binding was seen depends on the method and setting. In cells and extracts the contact can be indirect. Some results given as binding are weak or reduced against the parent protein; the word gives no strength. Sequences can lack the tags named with a protein.

Protein sequences, listed by entry. Tags and fused reporters are not part of them. Residues count along the entry.
UniProt P0CS90, residues 24-654: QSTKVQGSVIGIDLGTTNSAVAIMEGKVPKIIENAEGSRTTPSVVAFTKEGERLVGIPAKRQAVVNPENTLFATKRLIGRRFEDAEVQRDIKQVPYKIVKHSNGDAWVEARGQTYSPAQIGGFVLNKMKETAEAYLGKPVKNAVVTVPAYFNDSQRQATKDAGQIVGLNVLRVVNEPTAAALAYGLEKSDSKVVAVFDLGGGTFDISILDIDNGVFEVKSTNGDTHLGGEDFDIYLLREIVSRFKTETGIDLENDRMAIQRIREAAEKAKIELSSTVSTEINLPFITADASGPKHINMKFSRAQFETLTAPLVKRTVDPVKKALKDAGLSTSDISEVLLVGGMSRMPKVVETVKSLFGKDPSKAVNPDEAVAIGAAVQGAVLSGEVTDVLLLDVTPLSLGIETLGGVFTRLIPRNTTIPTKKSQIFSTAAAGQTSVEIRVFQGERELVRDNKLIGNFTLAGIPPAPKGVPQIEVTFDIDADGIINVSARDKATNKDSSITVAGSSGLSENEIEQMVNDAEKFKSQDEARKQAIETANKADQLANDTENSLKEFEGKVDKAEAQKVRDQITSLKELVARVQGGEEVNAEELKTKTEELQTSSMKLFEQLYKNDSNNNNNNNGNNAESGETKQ

T1: Tim17 with an affinity tag, endogenous TIM complex (S. cerevisiae) (UniProt P39515)
T1 sequence: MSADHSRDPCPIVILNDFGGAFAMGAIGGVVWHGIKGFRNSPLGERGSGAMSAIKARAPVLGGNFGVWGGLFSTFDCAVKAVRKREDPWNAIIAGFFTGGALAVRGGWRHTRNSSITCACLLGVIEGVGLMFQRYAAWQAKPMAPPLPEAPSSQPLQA

T2: Tim17 with an affinity tag, overexpressed (S. cerevisiae) (UniProt P39515)
T2 sequence (chain, disulfide bond between Cys10 and Cys77): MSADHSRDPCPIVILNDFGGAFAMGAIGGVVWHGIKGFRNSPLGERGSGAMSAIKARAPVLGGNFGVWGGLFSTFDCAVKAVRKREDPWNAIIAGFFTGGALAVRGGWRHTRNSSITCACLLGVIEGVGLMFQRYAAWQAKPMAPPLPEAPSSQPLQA

T3: Tim21 with an affinity tag (S. cerevisiae) (UniProt P53220)
T3 sequence: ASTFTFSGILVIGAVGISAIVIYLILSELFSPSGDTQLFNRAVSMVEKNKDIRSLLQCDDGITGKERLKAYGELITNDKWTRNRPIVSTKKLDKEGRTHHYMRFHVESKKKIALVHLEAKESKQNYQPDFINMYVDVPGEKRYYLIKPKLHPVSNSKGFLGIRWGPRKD

T4: Tim21 with an affinity tag (S. cerevisiae), P53220
T4 chain: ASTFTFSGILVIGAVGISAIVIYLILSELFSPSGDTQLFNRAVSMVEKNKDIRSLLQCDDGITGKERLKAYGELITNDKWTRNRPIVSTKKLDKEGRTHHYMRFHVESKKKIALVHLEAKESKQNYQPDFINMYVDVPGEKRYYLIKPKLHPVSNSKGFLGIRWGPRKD


Assays:
Experiment in all cases: pull-down
[1] = biological target: T1, Tim17 with an affinity tag, endogenous TIM complex (S. cerevisiae)
[2] = biological target: T2, Tim17 with an affinity tag, overexpressed (S. cerevisiae)
[3] = biological target: T3, Tim21 with an affinity tag (S. cerevisiae)
[4] = biological target: T4, Tim21 with an affinity tag (S. …); settings: remark: other sources report otherwise

| binding [1] | binding [2] | further results | Molecule |
| --- | --- | --- | --- |
| binds | binds | binding [3]: no binding | mitochondrial heat-shock protein 70 (endogenous) (from UniProt P0CS90 24-654) |
| binds | – | – | Tim23, overexpressed (natural protein) MSWLFGDKTPTDDANAAVGGQDTTKPKELSLKQSLGFEPNINNIISGPGGMHVDTARLHPLAGLDKGVEYLDLEEEQLSSLEGSQGLIPSRGWTDDLCYGTGAVYLLGLGIGGFSGMMQGLQNIPPNSPGKLQLNTVLNHITKRGPFLGNNAGILALSYNIINSTIDALRGKHDTAGSIGAGALTGALFKSSKGLKPMGYSSAMVAAACAVWCSVKKRLLEK |
| – | binds | – | Pam16, overexpressed (protein, UniProt P42949 1-149) MAHRAFIQVIITGTQVFGKAFAEAYRQAASQSVKQGATNASRRGTGKGEYGGITLDESCKILNIEESKGDLNMDKINNRFNYLFEVNDKEKGGSFYLQSKVYRAAERLKWELAQREKNAKAKAGDASTAKPPPNSTNSSGADNSASSNQ |
| binds | – | – | Tim21 (endogenous) (protein, UniProt P53220 71-239) ASTFTFSGILVIGAVGISAIVIYLILSELFSPSGDTQLFNRAVSMVEKNKDIRSLLQCDDGITGKERLKAYGELITNDKWTRNRPIVSTKKLDKEGRTHHYMRFHVESKKKIALVHLEAKESKQNYQPDFINMYVDVPGEKRYYLIKPKLHPVSNSKGFLGIRWGPRKD |
| – | binds | – | Tim21, overexpressed (protein, UniProt P53220 71-239) ASTFTFSGILVIGAVGISAIVIYLILSELFSPSGDTQLFNRAVSMVEKNKDIRSLLQCDDGITGKERLKAYGELITNDKWTRNRPIVSTKKLDKEGRTHHYMRFHVESKKKIALVHLEAKESKQNYQPDFINMYVDVPGEKRYYLIKPKLHPVSNSKGFLGIRWGPRKD |
| – | – | binding [4]: no binding | Pam16, overexpressed, P42949 1-149 (protein) MAHRAFIQVIITGTQVFGKAFAEAYRQAASQSVKQGATNASRRGTGKGEYGGITLDESCKILNIEESKGDLNMDKINNRFNYLFEVNDKEKGGSFYLQSKVYRAAERLKWELAQREKNAKAKAGDASTAKPPPNSTNSSGADNSASSNQ |
| – | – | binding [4]: no binding | Pam18, overexpressed, Q07914 1-168 (protein) MSSQSNTGNSIEAPQLPIPGQTNGSANVTVDGAGVNVGIQNGSQGQKTGMDLYFDQALNYMGEHPVITGFGAFLTLYFTAGAYKSISKGLNGGKSTTAFLKGGFDPKMNSKEALQILNLTENTLTKKKLKEVHRKIMLANHPDKGGSPFLATKINEAKDFLEKRGISK |
